Measured values as given in the supplement of paper PMC10849652.
The other results are listed elsewhere or left out.

The chains behind the UniProt entries cited, without tags or fusion partners. Where a name states a change or a piece, a line headed by the entry shows the natural chain unless it says otherwise.
UniProt P02730: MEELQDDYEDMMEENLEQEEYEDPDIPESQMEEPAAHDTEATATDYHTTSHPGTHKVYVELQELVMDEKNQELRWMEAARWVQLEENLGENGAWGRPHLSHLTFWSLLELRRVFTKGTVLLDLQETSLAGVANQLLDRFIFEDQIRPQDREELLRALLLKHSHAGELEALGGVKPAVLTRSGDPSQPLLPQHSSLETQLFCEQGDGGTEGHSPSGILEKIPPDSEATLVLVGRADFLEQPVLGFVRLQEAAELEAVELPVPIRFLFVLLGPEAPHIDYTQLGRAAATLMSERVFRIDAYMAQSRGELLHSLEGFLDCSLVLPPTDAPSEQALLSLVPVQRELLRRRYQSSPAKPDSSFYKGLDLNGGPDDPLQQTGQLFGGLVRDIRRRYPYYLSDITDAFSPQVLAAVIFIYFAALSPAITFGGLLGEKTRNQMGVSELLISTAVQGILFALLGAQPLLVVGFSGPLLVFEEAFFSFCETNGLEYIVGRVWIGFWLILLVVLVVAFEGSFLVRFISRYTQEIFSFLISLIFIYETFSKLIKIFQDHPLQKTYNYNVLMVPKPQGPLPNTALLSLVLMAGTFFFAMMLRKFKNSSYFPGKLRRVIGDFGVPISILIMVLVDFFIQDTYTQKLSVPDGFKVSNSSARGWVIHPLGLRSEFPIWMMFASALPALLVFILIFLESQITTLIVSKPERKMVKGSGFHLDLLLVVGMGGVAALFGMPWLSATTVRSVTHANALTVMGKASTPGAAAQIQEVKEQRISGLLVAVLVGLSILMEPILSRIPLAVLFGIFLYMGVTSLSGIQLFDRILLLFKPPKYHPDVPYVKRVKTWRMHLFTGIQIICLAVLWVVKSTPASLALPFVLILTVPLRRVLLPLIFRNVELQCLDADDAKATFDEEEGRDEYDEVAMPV
UniProt Q9UPY5: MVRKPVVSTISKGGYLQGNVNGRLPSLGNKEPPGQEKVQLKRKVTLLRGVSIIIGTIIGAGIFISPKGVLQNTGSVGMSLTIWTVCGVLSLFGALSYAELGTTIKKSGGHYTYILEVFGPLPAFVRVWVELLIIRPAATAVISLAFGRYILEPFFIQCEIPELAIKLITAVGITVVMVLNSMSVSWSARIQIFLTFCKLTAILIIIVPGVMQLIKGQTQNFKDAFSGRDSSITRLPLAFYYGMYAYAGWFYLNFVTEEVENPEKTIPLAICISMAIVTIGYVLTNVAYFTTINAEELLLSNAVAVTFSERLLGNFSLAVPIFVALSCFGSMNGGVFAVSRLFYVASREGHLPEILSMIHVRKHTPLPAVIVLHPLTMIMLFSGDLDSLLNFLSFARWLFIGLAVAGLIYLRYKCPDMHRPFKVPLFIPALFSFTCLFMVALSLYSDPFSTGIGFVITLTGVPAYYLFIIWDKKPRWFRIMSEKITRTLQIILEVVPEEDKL
UniProt Q9BSK2: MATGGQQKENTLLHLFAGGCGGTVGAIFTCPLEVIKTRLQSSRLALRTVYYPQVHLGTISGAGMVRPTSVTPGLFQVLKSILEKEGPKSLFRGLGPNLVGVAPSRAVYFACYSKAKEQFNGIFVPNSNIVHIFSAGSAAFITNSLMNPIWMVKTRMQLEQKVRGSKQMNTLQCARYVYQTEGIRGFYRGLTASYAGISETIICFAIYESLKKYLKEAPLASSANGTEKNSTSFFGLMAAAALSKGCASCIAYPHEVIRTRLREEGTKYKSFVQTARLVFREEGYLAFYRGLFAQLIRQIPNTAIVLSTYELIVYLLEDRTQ
UniProt Q70HW3: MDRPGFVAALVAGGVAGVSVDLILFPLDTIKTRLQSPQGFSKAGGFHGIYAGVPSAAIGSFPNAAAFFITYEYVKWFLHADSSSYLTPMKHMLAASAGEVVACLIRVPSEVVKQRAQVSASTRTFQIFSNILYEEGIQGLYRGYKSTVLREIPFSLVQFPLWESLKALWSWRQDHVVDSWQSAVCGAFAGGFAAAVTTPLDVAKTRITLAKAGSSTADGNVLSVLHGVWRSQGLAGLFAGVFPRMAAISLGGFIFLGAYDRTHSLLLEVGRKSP
UniProt O43808: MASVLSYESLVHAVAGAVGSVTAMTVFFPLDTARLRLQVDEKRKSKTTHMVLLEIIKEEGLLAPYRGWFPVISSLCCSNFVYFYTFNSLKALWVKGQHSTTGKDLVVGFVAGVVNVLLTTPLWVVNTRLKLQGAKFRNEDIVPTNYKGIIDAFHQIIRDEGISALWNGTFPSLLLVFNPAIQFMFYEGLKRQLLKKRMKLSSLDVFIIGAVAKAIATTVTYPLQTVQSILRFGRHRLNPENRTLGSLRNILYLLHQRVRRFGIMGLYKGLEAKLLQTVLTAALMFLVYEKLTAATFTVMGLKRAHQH
UniProt Q9H1N7: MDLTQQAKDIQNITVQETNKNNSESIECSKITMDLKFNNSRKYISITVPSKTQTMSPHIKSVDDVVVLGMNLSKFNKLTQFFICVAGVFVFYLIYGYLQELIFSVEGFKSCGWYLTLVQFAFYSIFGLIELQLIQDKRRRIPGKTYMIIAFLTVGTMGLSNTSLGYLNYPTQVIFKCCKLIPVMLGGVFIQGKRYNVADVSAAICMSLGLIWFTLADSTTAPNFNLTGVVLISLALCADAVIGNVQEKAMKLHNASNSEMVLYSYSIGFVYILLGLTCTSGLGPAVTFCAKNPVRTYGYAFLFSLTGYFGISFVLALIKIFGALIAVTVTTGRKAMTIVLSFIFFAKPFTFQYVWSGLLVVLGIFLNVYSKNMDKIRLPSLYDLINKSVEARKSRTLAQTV
UniProt Q9H1U9: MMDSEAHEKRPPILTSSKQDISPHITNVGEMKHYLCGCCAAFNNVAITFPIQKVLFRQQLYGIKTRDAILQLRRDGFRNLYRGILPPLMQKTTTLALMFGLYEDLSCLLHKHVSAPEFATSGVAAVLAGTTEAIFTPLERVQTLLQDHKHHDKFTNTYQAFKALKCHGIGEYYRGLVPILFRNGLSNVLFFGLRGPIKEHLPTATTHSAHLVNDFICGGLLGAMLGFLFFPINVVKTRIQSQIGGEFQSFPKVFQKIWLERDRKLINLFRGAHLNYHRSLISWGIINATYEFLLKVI
UniProt Q6P1K1: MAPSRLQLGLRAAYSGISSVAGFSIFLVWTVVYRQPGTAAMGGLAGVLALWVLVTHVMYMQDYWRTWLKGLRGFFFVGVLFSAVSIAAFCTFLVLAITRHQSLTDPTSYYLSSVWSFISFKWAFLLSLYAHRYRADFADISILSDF
UniProt Q14542: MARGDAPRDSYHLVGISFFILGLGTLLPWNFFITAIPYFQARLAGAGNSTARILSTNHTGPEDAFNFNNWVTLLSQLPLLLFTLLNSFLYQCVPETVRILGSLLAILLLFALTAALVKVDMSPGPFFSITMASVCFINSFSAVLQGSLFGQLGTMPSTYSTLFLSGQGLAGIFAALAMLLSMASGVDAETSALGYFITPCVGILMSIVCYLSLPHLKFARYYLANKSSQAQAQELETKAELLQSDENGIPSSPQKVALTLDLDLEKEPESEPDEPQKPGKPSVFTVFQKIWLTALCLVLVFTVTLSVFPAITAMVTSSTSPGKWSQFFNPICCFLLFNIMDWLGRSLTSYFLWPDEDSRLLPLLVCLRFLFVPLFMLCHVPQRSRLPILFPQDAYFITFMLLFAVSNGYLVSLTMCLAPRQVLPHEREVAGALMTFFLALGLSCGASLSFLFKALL
UniProt P30825: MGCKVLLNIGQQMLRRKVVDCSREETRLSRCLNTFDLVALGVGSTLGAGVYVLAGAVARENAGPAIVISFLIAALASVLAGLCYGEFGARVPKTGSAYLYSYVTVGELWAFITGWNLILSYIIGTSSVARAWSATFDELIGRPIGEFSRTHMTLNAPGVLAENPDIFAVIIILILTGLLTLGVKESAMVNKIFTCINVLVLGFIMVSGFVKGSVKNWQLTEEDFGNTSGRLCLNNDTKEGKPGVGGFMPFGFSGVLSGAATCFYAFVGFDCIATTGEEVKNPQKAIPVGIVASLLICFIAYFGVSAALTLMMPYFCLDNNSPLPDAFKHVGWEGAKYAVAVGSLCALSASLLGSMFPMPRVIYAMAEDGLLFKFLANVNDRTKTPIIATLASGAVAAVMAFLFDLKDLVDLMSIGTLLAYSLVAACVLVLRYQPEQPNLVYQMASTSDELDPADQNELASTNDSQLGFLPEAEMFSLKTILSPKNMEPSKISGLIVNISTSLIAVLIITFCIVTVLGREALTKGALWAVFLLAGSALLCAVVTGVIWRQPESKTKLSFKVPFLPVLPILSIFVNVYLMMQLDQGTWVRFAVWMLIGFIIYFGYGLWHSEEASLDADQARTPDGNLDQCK
UniProt Q92536: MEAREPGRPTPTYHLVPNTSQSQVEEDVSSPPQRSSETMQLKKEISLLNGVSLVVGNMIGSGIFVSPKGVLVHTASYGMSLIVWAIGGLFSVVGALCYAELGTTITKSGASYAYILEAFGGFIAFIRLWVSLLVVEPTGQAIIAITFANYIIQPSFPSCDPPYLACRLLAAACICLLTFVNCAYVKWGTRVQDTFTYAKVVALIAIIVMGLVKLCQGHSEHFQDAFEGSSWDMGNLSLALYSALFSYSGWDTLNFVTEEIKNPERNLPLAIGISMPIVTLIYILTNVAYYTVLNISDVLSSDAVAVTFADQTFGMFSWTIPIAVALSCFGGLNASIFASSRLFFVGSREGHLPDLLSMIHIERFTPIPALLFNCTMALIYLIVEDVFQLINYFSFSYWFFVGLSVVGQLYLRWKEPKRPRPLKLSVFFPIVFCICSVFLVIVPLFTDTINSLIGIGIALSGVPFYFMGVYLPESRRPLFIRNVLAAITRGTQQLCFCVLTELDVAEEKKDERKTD
UniProt Q9Y289: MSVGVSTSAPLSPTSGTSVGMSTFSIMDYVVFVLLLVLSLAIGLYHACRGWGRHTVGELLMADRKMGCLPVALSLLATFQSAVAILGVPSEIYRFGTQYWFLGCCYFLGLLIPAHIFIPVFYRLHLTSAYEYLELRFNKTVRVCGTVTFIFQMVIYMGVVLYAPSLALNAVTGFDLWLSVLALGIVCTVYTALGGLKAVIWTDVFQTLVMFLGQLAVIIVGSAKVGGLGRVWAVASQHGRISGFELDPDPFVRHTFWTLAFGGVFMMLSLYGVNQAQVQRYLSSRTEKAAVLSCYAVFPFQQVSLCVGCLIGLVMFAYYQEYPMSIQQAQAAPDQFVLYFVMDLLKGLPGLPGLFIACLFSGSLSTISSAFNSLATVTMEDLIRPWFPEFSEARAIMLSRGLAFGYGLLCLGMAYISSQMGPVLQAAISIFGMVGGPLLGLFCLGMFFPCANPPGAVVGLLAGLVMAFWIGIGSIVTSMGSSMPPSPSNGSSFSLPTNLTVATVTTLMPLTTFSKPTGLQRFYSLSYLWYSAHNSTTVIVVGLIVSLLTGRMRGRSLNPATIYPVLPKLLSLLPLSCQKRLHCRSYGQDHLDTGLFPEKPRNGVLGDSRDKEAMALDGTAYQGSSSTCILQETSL
UniProt Q9H2D1: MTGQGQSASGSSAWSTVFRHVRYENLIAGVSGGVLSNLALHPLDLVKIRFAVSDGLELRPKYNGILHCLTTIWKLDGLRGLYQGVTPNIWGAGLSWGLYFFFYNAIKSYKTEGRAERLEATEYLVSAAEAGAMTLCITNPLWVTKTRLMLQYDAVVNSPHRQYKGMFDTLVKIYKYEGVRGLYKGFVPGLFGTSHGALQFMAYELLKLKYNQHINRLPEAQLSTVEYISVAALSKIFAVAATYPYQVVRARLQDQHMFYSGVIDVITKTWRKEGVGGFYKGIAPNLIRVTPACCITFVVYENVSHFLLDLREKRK
UniProt Q96AG3: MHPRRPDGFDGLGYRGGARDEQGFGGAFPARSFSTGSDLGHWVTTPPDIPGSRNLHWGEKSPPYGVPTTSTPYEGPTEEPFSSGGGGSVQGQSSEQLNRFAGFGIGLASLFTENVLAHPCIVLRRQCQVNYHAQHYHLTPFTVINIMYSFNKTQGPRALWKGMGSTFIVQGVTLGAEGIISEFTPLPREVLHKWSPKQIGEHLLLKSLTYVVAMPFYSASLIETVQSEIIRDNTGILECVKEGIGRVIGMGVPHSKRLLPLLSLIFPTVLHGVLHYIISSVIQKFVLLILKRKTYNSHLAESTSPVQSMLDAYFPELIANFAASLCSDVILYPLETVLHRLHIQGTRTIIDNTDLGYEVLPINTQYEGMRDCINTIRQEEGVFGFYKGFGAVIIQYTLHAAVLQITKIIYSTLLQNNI
UniProt O15431: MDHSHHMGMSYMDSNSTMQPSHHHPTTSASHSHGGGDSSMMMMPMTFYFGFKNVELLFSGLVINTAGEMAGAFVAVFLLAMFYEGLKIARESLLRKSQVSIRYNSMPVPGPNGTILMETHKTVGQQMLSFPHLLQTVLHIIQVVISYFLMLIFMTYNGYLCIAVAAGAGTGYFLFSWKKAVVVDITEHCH

These targets were tested with Cc1nc(Nc2ncc(C(=O)Nc3c(C)cccc3Cl)s2)cc(N2CCN(CCO)CC2)n1 [dasatinib] (assay: log2 fold change, soluble protein after heating vs DMSO (PISA); higher = thermal stabilisation; K562 lysate, 10 uM; active = over 0.2 and 3.5 SD of the protein, either way, in both replicates (recomputed)).
How it was run: (§1)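 To prepare the extract, K562 pellets were dounce-homogenised in PBS pH 7.4 with 1 mM MgCl2, giving crude material at 1 mg/mL protein. This was treated with 10 μM compound for 30 min, then heated in aliquots for 3 min over 48°C-58°C before pooling and addition of NP-40 to 0.5% at 4°C. Centrifugation at 21,000xg for 90 min left soluble protein in the supernatant, which TMTpro 16plex LC-MS/MS quantified with equalised channel sums. Results are log-two fold changes in thermal stability compared with solvent controls, from duplicates.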
SLC4A1 (UniProt P02730) was tested, and the log2 fold change was inactive: -0.004.
With SLC39A14 (UniProt Q15043) the log2 fold change was inactive: -0.002.
With SLC7A11 (UniProt Q9UPY5) the log2 fold change was inactive: -0.026.
In the case of SLC5A3 (UniProt P53794), the log2 fold change is reported as inactive: 0.02.
In the case of SLC22A23 (UniProt A1A5C7), the log2 fold change is reported as inactive: -0.017.
In the case of SLC25A33 (UniProt Q9BSK2), the log2 fold change is reported as inactive: 0.03.
With SLC25A44 (UniProt Q96H78) the log2 fold change was active: -0.539.
With SLC25A26 (UniProt Q70HW3) the log2 fold change was inactive: 0.006.
With SLC25A17 (UniProt O43808) the log2 fold change was inactive: 0.01.
In the case of SLC35B3 (UniProt Q9H1N7), the log2 fold change is reported as inactive: -0.053.
For SLC25A51 (UniProt Q9H1U9), the log2 fold change was inactive: 0.027.
In the case of SLC35F2 (UniProt Q8IXU6), the log2 fold change is reported as inactive: 0.036.
In the case of SLC26A2 (UniProt P50443), the log2 fold change is reported as inactive: 0.077.
In the case of SLC48A1 (UniProt Q6P1K1), the log2 fold change is reported as inactive: 0.083.
In the case of SLC43A1 (UniProt O75387), the log2 fold change is reported as inactive: -0.034.
For SLC29A2 (UniProt Q14542), the log2 fold change was inactive: 0.029.
With SLC22A5 isoform 3 (UniProt O76082) the log2 fold change was inactive: 0.017.
For SLC9A6 isoform 2 (UniProt Q92581), the log2 fold change was inactive: 0.06.
In the case of SLC3A2 (UniProt F5GZS6), the log2 fold change is reported as inactive: -0.008.
For SLC52A2 (UniProt Q9HAB3), the log2 fold change was inactive: 0.057.
For SLC7A1 (UniProt P30825), the log2 fold change was inactive: 0.026.
For SLC7A6 (UniProt Q92536), the log2 fold change was inactive: 0.025.
With SLC39A1 (UniProt Q9NY26) the log2 fold change was inactive: -0.081.
In the case of SLC5A6 (UniProt Q9Y289), the log2 fold change is reported as inactive: 0.028.
In the case of SLC25A30 (UniProt Q5SVS4), the log2 fold change is reported as inactive: -0.023.
In the case of SLC35E1 (UniProt Q96K37), the log2 fold change is reported as inactive: 0.007.
In the case of SLC25A32 (UniProt Q9H2D1), the log2 fold change is reported as inactive: 0.011.
SLC9A8 isoform 2 (UniProt Q9Y2E8) was tested, and the log2 fold change was inactive: 0.118.
With SLC2A4 (UniProt P14672) the log2 fold change was inactive: 0.041.
With SLC25A46 (UniProt Q96AG3) the log2 fold change was inactive: -0.065.
SLC31A1 (UniProt O15431) was tested, and the log2 fold change was inactive: 0.177.

These targets were tested with Cc1ncc(-c2ccnc(Nc3ccc(S(C)(=O)=O)cc3)n2)n1C(C)C in the same assay as above.
How it was run: as §1
With SLC4A1 (UniProt P02730) the log2 fold change was inactive: -0.026.
For SLC45A4 isoform 3 (UniProt Q5BKX6), the log2 fold change was inactive: -0.062.
With SLC35C1 (UniProt Q96A29) the log2 fold change was inactive: 0.095.
SLC39A14 (UniProt Q15043) was tested, and the log2 fold change was inactive: 0.016.
With SLC7A11 (UniProt Q9UPY5) the log2 fold change was inactive: -0.011.
For SLC5A3 (UniProt P53794), the log2 fold change was inactive: -0.028.
With SLC25A33 (UniProt Q9BSK2) the log2 fold change was inactive: -0.007.
In the case of SLC25A26 (UniProt Q70HW3), the log2 fold change is reported as inactive: -0.042.
With SLC35B4 (UniProt Q969S0) the log2 fold change was inactive: -0.004.
With SLC25A17 (UniProt O43808) the log2 fold change was inactive: 0.032.
In the case of SLC35B3 (UniProt Q9H1N7), the log2 fold change is reported as inactive: -0.065.
With SLC25A51 (UniProt Q9H1U9) the log2 fold change was inactive: -0.003.
For SLC35F2 (UniProt Q8IXU6), the log2 fold change was inactive: 0.052.
In the case of SLC48A1 (UniProt Q6P1K1), the log2 fold change is reported as inactive: 0.186.
In the case of SLC43A1 (UniProt O75387), the log2 fold change is reported as inactive: 0.06.
SLC29A2 (UniProt Q14542) was tested, and the log2 fold change was inactive: 0.058.
In the case of SLC3A2 (UniProt F5H867), the log2 fold change is reported as inactive: -0.039.
With SLC3A2 (UniProt F5GZS6) the log2 fold change was inactive: -0.02.
In the case of SLC7A1 (UniProt P30825), the log2 fold change is reported as inactive: -0.04.
For SLC7A6 (UniProt Q92536), the log2 fold change was inactive: -0.098.
SLC66A1 (UniProt Q6ZP29) was tested, and the log2 fold change was inactive: -0.129.
With SLC5A6 (UniProt Q9Y289) the log2 fold change was inactive: 0.013.
With SLC25A30 (UniProt Q5SVS4) the log2 fold change was inactive: 0.046.
SLC25A32 (UniProt Q9H2D1) was tested, and the log2 fold change was inactive: 0.043.
SLC9A8 isoform 2 (UniProt Q9Y2E8) was tested, and the log2 fold change was inactive: -0.09.
With SLC30A6 isoform 2 (UniProt Q6NXT4) the log2 fold change was inactive: -0.067.
SLC25A46 (UniProt Q96AG3) was tested, and the log2 fold change was inactive: -0.017.
SLC31A1 (UniProt O15431) was tested, and the log2 fold change was inactive: 0.052.
SLC39A7 (UniProt Q92504) was tested, and the log2 fold change was inactive: 0.031.

What follows are targets tested with Cn1cc(-c2ccc3c(c2)CCN3C(=O)Cc2cccc(C(F)(F)F)c2)c2c(N)ncnc21 in the same assay as above.
How it was run: as §1
With SLC4A1 (UniProt P02730) the log2 fold change was inactive: 0.042.
For SLC39A14 (UniProt Q15043), the log2 fold change was inactive: 0.013.
SLC7A11 (UniProt Q9UPY5) was tested, and the log2 fold change was inactive: -0.04.
With SLC5A3 (UniProt P53794) the log2 fold change was inactive: 0.006.
SLC22A23 (UniProt A1A5C7) was tested, and the log2 fold change was inactive: 0.001.
With SLC25A33 (UniProt Q9BSK2) the log2 fold change was inactive: 0.018.
In the case of SLC25A44 (UniProt Q96H78), the log2 fold change is reported as inactive: -0.162.
In the case of SLC25A26 (UniProt Q70HW3), the log2 fold change is reported as inactive: -0.013.
SLC25A17 (UniProt O43808) was tested, and the log2 fold change was inactive: 0.023.
SLC35B3 (UniProt Q9H1N7) was tested, and the log2 fold change was inactive: 0.042.
In the case of SLC25A51 (UniProt Q9H1U9), the log2 fold change is reported as inactive: -0.042.
For SLC35F2 (UniProt Q8IXU6), the log2 fold change was inactive: 0.006.
SLC26A2 (UniProt P50443) was tested, and the log2 fold change was inactive: 0.004.
For SLC48A1 (UniProt Q6P1K1), the log2 fold change was inactive: 0.053.
In the case of SLC43A1 (UniProt O75387), the log2 fold change is reported as inactive: 0.06.
In the case of SLC29A2 (UniProt Q14542), the log2 fold change is reported as inactive: 0.037.
For SLC22A5 isoform 3 (UniProt O76082), the log2 fold change was inactive: -0.038.
With SLC9A6 isoform 2 (UniProt Q92581) the log2 fold change was inactive: -0.03.
With SLC3A2 (UniProt F5GZS6) the log2 fold change was inactive: -0.038.
In the case of SLC52A2 (UniProt Q9HAB3), the log2 fold change is reported as inactive: -0.032.
In the case of SLC7A1 (UniProt P30825), the log2 fold change is reported as inactive: 0.06.
With SLC7A6 (UniProt Q92536) the log2 fold change was inactive: -0.006.
In the case of SLC39A1 (UniProt Q9NY26), the log2 fold change is reported as inactive: 0.087.
In the case of SLC5A6 (UniProt Q9Y289), the log2 fold change is reported as inactive: -0.004.
With SLC25A30 (UniProt Q5SVS4) the log2 fold change was inactive: -0.038.
For SLC35E1 (UniProt Q96K37), the log2 fold change was inactive: 0.006.
SLC25A32 (UniProt Q9H2D1) was tested, and the log2 fold change was inactive: -0.055.
For SLC9A8 isoform 2 (UniProt Q9Y2E8), the log2 fold change was inactive: 0.046.
For SLC2A4 (UniProt P14672), the log2 fold change was inactive: -0.067.
For SLC25A46 (UniProt Q96AG3), the log2 fold change was inactive: -0.01.
With SLC31A1 (UniProt O15431) the log2 fold change was inactive: -0.158.
